# Measured values taken from PubChem BioAssay AID1487 (National Center for Advancing Translational Sciences (NCATS), 2009).
# Some of the results follow. The main result of the screen is listed elsewhere. These columns were measured beside it and carry no call. Compounds called inactive in the main read-out are mostly missing here. Potencies come from curve fits of mixed quality, noted in brackets.
# Assay: qHTS Assay for Modulators of Lamin A Splicing
# Conditions: HeLa LMNA splicing GFP/RFP minigene ratio, 48 h
# Procedure, shortened: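 Read-out is the ratio of GFP to DsRed2 object intensity, acquired by 488 nm laser-scanning cytometry on HeLa lamin A-EGFP minigene reporter cells. Compound incubation 48 hrs at 37 °C in Opti-MEM with 2% FBS; DMSO 0.5% final.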
# [1] = measured here: GFP splicing reporter channel
# [2] = measured here: RFP viability control channel
Compound,AC50 [1],AC50 [2]
COc1ccc(NS(=O)(=O)c2ccc(NC(=O)c3ccc(N(C)S(C)(=O)=O)cc3)cc2)c(OC)c1,"3.16 µM [rising, partial curve, poor fit]","2.82 µM [rising, full curve]"
CCCc1cc(=O)[nH]c(SCc2csc(-c3ccccc3)n2)n1,"35.5 µM [rising, single point]","31.6 µM [rising, single point]"
c1ccc(-c2nnc(CSc3nnc(-c4ccncc4)n3Cc3ccco3)o2)cc1,"14.1 µM [rising, single point]","14.1 µM [rising, single point]"
CCCc1nc2c(c(=O)c3ccccc3n2C)c(=O)n1C1CCCCCC1,–,"25.1 µM [rising, single point]"
O=C(c1ccccc1)N1CCC(O)(c2cccnc2)CC1,"3.98 µM [rising, single point]","6.31 µM [rising, single point]"
CCOC(=O)c1sc2ccccc2c1OC(=O)c1ccccc1OC,–,"0.282 µM [rising, full curve, poor fit]"
CCN(CC)c1ncnc2sc(C(=O)N3CCN(c4ccc(OC)cc4)CC3)c(C)c12,–,"35.5 µM [rising, single point]"
O=C(Cc1ccccc1)c1c[nH]c(C(=O)NCCCn2ccnc2)c1,"6.31 µM [rising, single point]",–
CCOC(=O)c1cccc(NC(=O)c2ccc(N(C)C)cc2)c1,–,"11.2 µM [rising, partial curve, poor fit]"
Cc1c(C(=O)N(C)Cc2ccccc2)sc2nc(-c3ccc(F)cc3)cn12,–,"7.08 µM [rising, partial curve]"
Cc1cc(NC(=O)CCc2ccc(S(=O)(=O)N3CCOCC3)cc2)n(-c2ccccc2)n1,–,"35.5 µM [rising, single point]"
Cc1ccc(-c2cn3c(n2)sc2cc(C(=O)NC4CCCCCC4)ccc23)cc1,–,"0.0158 µM [falling, full curve]"
CCOC(=O)N1CCN(C(=O)C2CCN(Cc3cccc(OCc4ccccc4)c3)CC2)CC1,"31.6 µM [rising, single point]","35.5 µM [rising, single point]"
Cc1nc2c(-c3ccccc3)c(C)nn2c(N)c1-c1ccccc1,–,"35.5 µM [rising, single point]"
O=c1[nH]c(-c2ccccn2)cc2ccccc12,–,"35.5 µM [falling, single point]"
CCCc1nnc(NC(=O)c2c(O)c3c([nH]c2=O)CCCC3)s1,–,"0.0501 µM [rising, full curve, poor fit]"
CCOc1cc(-c2cc(-c3ccc(C)o3)nc(N)c2C#N)ccc1O,–,"12.6 µM [rising, single point]"
O=S(Cc1ccc(Br)cc1)Cc1nnc(SCc2ccc(Cl)cc2)n1-c1ccccc1 (stereo unspecified),"15.8 µM [falling, single point]","25.1 µM [falling, single point]"
c1ccc(Cn2c(Sc3nnnn3-c3ccccc3)nnc2-c2ccccc2)cc1,–,"31.6 µM [rising, single point]"

Compound,AC50 [1],AC50 [2]
Oc1ccccc1/C=N/NC(=S)NC1CC2CC1C1C=CCC21 (stereo unspecified),"22.4 µM [falling, single point]","10 µM [falling, partial curve]"
CC(=O)O/N=C/c1c(N2CCOCC2)n(C)c2ccccc12,"15.8 µM [falling, single point]","22.4 µM [falling, partial curve, poor fit]"
CCOc1ccccc1NC1=CC(=O)CC(c2ccccc2)C1 (stereo unspecified),"15.8 µM [falling, single point]","35.5 µM [falling, single point]"
NC(=S)N/N=C\c1ccc(-c2cccc(Cl)c2Cl)o1,"5.01 µM [falling, partial curve]","6.31 µM [falling, full curve]"
COc1cc(/C=C2\SC(=S)N(Nc3ccccc3)C2=O)cc(OC)c1OC,–,"14.1 µM [falling, single point]"
O=[N+]([O-])c1nn(-c2ccc3c(c2)OCCO3)n(O)c1=NCc1ccc(F)cc1Cl,"0.0631 µM [rising, full curve, poor fit]",–
N/C(=N\OC(=O)c1ccccc1Cl)c1ccncc1,"2.51 µM [falling, single point]","35.5 µM [rising, single point]"
CCOC(=O)C(=CNc1ccc(N2CCOCC2)cc1)C(=O)OCC,"5.62 µM [falling, single point]",–
O=C(/C=C/c1cccs1)Nc1nc(-c2ccccc2)cs1,–,"28.2 µM [rising, single point]"
O=[N+]([O-])c1ccc(CSc2nc3ccccc3[nH]2)cc1,–,"14.1 µM [rising, partial curve, poor fit]"
CCN(C(=O)CSc1nc2ccccc2c(=O)n1CCOC)C1CCS(=O)(=O)C1 (stereo unspecified),–,"3.16 µM [rising, partial curve]"
CCOC(=O)C1CCCN(Cc2nc(Cc3cccc(F)c3)no2)C1 (stereo unspecified),–,"6.31 µM [falling, partial curve, poor fit]"
COC(=O)c1c(NC(=O)CSc2nncs2)sc2c1CCCCC2,–,"14.1 µM [rising, partial curve]"
COc1ccc(N2CCN(C(=O)CSc3nnc(NC(=O)C4CC4)s3)CC2)cc1,"0.00316 µM [falling, full curve, poor fit]",–
Cc1ccccc1Nc1nc(N)c2ccccc2n1,"0.02 µM [falling, full curve, poor fit]",–
COc1ccc(-c2ccc(CNCCCN3CCOCC3)o2)cc1Cl,"3.98 µM [falling, full curve, poor fit]","3.16 µM [falling, single point]"
O=C(CSc1nnnn1-c1ccccc1)CC(=O)Nc1ccc(Cl)cc1,"11.2 µM [rising, partial curve]","11.2 µM [rising, partial curve]"
C(=N\Nc1nc(Nc2ccccc2)nc(N2CCOCC2)n1)/c1c[nH]c2ccccc12,"17.8 µM [falling, single point]","35.5 µM [falling, single point]"
Cc1ccc(C)c(OCCn2c(=O)c3c(ncn3C3CCCC3)n(Cc3ccccc3)c2=O)c1,–,"14.1 µM [rising, single point]"

# Complete entries, looked up by structure.
# `O=[N+]([O-])c1nn(-c2ccc3c(c2)OCCO3)n(O)c1=NCc1ccc(F)cc1Cl` in the list: AC50 [1]: 0.0631 µM [rising, full curve, poor fit]
# `Cc1ccc(C)c(OCCn2c(=O)c3c(ncn3C3CCCC3)n(Cc3ccccc3)c2=O)c1` in the list: AC50 [2]: 14.1 µM [rising, single point]
# `O=c1[nH]c(-c2ccccn2)cc2ccccc12` in the list: AC50 [2]: 35.5 µM [falling, single point]
# `CCOc1cc(-c2cc(-c3ccc(C)o3)nc(N)c2C#N)ccc1O` in the list: AC50 [2]: 12.6 µM [rising, single point]

# (list continues)

Compound,AC50 [1],AC50 [2]
O=C(c1ccc([N+](=O)[O-])cc1)n1nc(-c2ccccc2)nc1NCc1ccccc1,–,"20 µM [falling, partial curve, poor fit]"
CC1(C)CC(NCc2ccncc2)CC(C)(C)N1,–,"2 µM [rising, single point]"
COc1ccccc1NS(=O)(=O)c1cccc(C(=O)N/N=C/c2cn(-c3ccccc3)nc2-c2ccccc2)c1,"28.2 µM [rising, single point]","22.4 µM [rising, single point]"
CCCCCCC(=O)N/N=C/c1ccc(Br)cc1,–,"0.0141 µM [rising, full curve, poor fit]"
COc1ccc(S(=O)(=O)N2CCC(O)(c3ccc(Cl)cc3)CC2)cc1,"0.00501 µM [rising, full curve, poor fit]","22.4 µM [rising, partial curve]"
CCCCOc1ccc(-c2ncc(C(=O)OCC)c(N)n2)cc1,–,"31.6 µM [rising, single point]"
COc1cccc(N2CCN(c3cnc4ccccc4n3)CC2)c1,"6.31 µM [falling, partial curve]",–
COc1cccc(/C=C(\CC(=O)O)c2nc3ccccc3s2)c1,–,"7.94 µM [falling, partial curve, poor fit]"
CCOc1ccc(C(c2c(NC(=O)c3ccccc3)sc(C)c2C)N2CCN(C)CC2)cc1 (stereo unspecified),"35.5 µM [falling, single point]",–
CCC(=NCCc1c(C)[nH]c2ccc(C)cc12)C1=C(O)CC(c2ccccc2)CC1=O (stereo unspecified),–,"0.447 µM [rising, full curve]"
CC/C(Cc1ccccc1)=N\NC(=O)c1cc([N+](=O)[O-])cc([N+](=O)[O-])c1,–,"2.51 µM [falling, partial curve]"
Cc1cc2ccccc2n1CCNC(=O)COc1ccc2ccccc2c1,"31.6 µM [rising, single point]","35.5 µM [rising, single point]"
CC1=CC(C)(C)Nc2cc(C)c(C)cc21,–,"0.316 µM [falling, full curve, poor fit]"
C/C(=N\Nc1nc(N)cc(Cl)n1)c1ccc(F)cc1,"0.891 µM [falling, full curve, poor fit]","2.51 µM [falling, full curve, poor fit]"
FC(F)(F)c1cnc(Oc2ccc(-c3nnco3)cc2)c(Cl)c1,–,"5.62 µM [rising, single point]"
COc1ccccc1NC(=S)N/N=C1\CC(C)(C)Oc2ccc(O)cc21,–,"1.41 µM [falling, full curve, poor fit]"
S=c1[nH]nc(CCSCc2ccccc2)n1-c1ccccc1,"6.31 µM [rising, partial curve, poor fit]","0.316 µM [rising, full curve]"
CCOC(=O)c1c(CSc2ccccc2)n(C)c2ccc(O)c(CN3CCOCC3)c12,"10 µM [falling, partial curve]",–
COc1ccc([N+](=O)[O-])cc1N(CC(=O)NCCSc1ccc(C)cc1)S(C)(=O)=O,–,"35.5 µM [falling, single point]"
